Results are given in words; binding and its absence hold for the method and conditions named. In cells and extracts the contact can be indirect. These calls come from enrichment with a bait or labelling near it, and not all partners need be listed. No binding means not detected with the bait. Where a sequence is shown, tags or fusion partners need not be part of it. Values belong to the binder of their own block, whether it stands above or below them.
Assays:
[1] = molecular target: T1, AtMORC7 with a C-terminal FLAG or MYC epitope tag (pAtMORC7::AtMORC7-FLAG, pAtMORC7::AtMORC7-MYC) (Arabidopsis thaliana) (UniProt F4JRS4); assay: affinity purification with mass spectrometry; FLAG-tagged AtMORC4 or AtMORC7 plants; M2 magnetic FLAG beads; elution with 3xFLAG peptides; mass spectrometry
T1 sequence: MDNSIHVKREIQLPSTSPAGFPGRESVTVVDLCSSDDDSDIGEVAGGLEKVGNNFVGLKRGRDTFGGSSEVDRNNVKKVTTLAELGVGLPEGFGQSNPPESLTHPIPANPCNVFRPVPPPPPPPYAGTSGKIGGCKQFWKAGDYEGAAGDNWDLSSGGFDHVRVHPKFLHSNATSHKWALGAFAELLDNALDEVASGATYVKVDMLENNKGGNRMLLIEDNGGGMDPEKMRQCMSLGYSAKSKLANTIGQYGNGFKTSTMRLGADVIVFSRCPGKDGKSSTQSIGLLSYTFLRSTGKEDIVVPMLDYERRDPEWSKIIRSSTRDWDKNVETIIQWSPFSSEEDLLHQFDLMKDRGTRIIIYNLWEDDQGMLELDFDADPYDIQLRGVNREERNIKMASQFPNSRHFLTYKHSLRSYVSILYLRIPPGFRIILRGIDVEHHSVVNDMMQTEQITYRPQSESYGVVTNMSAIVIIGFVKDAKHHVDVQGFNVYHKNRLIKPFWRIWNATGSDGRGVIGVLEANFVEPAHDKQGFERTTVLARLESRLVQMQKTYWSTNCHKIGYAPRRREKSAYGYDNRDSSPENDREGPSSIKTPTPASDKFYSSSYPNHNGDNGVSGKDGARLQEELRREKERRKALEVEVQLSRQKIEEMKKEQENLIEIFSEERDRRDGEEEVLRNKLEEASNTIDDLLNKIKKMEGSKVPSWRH

[2] = molecular target: T2, AtMORC4 with a C-terminal FLAG or MYC epitope tag (pAtMORC4::AtMORC4-FLAG, pAtMORC4::AtMORC4-MYC) (Arabidopsis thaliana) (UniProt F4KAF2); assay: as above
T2 sequence: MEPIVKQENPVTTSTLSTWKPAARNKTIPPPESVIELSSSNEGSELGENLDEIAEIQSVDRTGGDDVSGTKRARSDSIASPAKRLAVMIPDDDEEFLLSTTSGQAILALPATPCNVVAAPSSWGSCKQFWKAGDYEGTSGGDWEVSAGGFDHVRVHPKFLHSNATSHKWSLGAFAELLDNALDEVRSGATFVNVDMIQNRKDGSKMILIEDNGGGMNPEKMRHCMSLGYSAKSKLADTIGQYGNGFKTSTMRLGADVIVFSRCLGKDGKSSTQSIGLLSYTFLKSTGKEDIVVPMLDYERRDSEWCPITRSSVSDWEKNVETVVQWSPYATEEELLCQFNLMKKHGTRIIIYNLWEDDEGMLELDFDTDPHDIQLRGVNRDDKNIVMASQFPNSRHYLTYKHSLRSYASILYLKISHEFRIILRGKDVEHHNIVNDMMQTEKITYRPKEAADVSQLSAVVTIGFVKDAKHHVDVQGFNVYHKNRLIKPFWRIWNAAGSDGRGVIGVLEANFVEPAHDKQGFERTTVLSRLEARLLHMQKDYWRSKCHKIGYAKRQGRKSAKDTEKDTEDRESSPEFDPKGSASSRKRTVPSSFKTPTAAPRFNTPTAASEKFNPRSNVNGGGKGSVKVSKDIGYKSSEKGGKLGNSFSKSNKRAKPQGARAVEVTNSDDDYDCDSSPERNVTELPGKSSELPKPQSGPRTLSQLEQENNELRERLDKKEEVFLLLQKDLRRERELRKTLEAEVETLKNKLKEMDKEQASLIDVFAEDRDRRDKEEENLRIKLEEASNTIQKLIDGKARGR

- binding [1]: no binding
B1: AtMORC4 (untagged, in plants expressing AtMORC7-FLAG) (protein, UniProt F4KAF2 1-800)
chain: T2 sequence

- binding [2]: no binding
B2: AtMORC7 (untagged, in plants expressing AtMORC4-FLAG) (protein, UniProt F4JRS4 1-707)
chain: T1 sequence

Reference: publication PMC4865129
